Measured values from patent US9035067B2, “N-(1,2,5-Oxadiazol-3-yl)-, N-(tetrazol-5-yl)- and N-(triazol-5-yl)bicycloarylcarboxamides and their use as herbicides” (BAYER INTELLECTUAL PROPERTY GMBH, priority 2011, dated 2015).
Some of these results come from one statement about several compounds together. For some assays here: For at least one compound, name, drawing or mass did not settle the structure.

Legend:
Type in all cases: in vivo
Abutilon theophrasti [1] = assay: Pre-emergence herbicidal action against harmful plants; settings: application rate 320 g/ha, visual assessment after 3 weeks vs untreated controls
Amaranthus retroflexus [2] = assay: as above; settings: application rate 320 g/ha, visual assessment after 3 weeks vs untreated controls
Abutilon theophrasti [3] = assay: Post-emergence herbicidal action against harmful plants; settings: application rate 80 g/ha, visual scoring after about 3 weeks vs untreated controls
Viola tricolor = assay: as above; settings: application rate 80 g/ha, visual scoring after about 3 weeks vs untreated controls
Matricaria inodora [4] = assay: Pre-emergence herbicidal action against harmful plants; settings: application rate 320 g/ha, visual assessment after 3 weeks vs untreated controls
Stellaria media [5] = assay: as above; settings: application rate 320 g/ha, visual assessment after 3 weeks vs untreated controls
Veronica persica [6] = assay: as above; settings: application rate 320 g/ha, visual assessment after 3 weeks vs untreated controls
Amaranthus retroflexus [7] = assay: Post-emergence herbicidal action against harmful plants; settings: application rate 80 g/ha, visual scoring after about 3 weeks vs untreated controls
Matricaria inodora [8] = assay: as above; settings: application rate 80 g/ha, visual scoring after about 3 weeks vs untreated controls
Stellaria media [9] = assay: as above; settings: application rate 80 g/ha, visual scoring after about 3 weeks vs untreated controls
Veronica persica [10] = assay: as above; settings: application rate 80 g/ha, visual scoring after about 3 weeks vs untreated controls

Cc1cc(C(=O)Nc2nnnn2C)c(C)c2c1SCCC2(C)C [compound 7]
at least 80%: efficacy (herbicidal activity in percent) (Abutilon theophrasti [1]) | efficacy (herbicidal activity in percent) (Amaranthus retroflexus [2]) | efficacy (herbicidal action in percent) (Abutilon theophrasti [3]) | efficacy (herbicidal action in percent) (Viola tricolor)

Cc1cc(C(=O)Nc2nnnn2C)c(C)c2c1S(=O)(=O)CCC2(C)C [compound 9]
at least 80%: efficacy (herbicidal activity in percent) (Abutilon theophrasti [1]) | efficacy (herbicidal activity in percent) (Amaranthus retroflexus [2]) | efficacy (herbicidal activity in percent) (Matricaria inodora [4]) | efficacy (herbicidal activity in percent) (Stellaria media [5]) | efficacy (herbicidal activity in percent) (Veronica persica [6]) | efficacy (herbicidal action in percent) (Abutilon theophrasti [3]) | efficacy (herbicidal action in percent) (Amaranthus retroflexus [7])

Cc1cc(C(=O)Nc2nnnn2C)c(C)c2c1SCCC2Oc1cnccn1 (centres unmarked) [compound 40]
at least 80%: efficacy (herbicidal activity in percent) (Abutilon theophrasti [1]) | efficacy (herbicidal activity in percent) (Amaranthus retroflexus [2]) | efficacy (herbicidal activity in percent) (Matricaria inodora [4]) | efficacy (herbicidal activity in percent) (Stellaria media [5]) | efficacy (herbicidal activity in percent) (Veronica persica [6]) | efficacy (herbicidal action in percent) (Matricaria inodora [8]) | efficacy (herbicidal action in percent) (Stellaria media [9]) | efficacy (herbicidal action in percent) (Veronica persica [10])

CCn1nnnc1NC(=O)c1cc(C)c2c(c1C)C(C)(C)CCS2 [compound 187]
at least 80%: efficacy (herbicidal activity in percent) (Abutilon theophrasti [1]) | efficacy (herbicidal activity in percent) (Amaranthus retroflexus [2]) | efficacy (herbicidal activity in percent) (Matricaria inodora [4]) | efficacy (herbicidal activity in percent) (Stellaria media [5]) | efficacy (herbicidal activity in percent) (Veronica persica [6]) | efficacy (herbicidal action in percent) (Abutilon theophrasti [3]) | efficacy (herbicidal action in percent) (Amaranthus retroflexus [7]) | efficacy (herbicidal action in percent) (Matricaria inodora [8]) | efficacy (herbicidal action in percent) (Stellaria media [9]) | efficacy (herbicidal action in percent) (Veronica persica [10])

CCn1nnnc1NC(=O)c1cc(C)c2c(c1C)C(C)(C)CCS2(=O)=O [compound 189, N-(1-ethyl-1H-tetrazol-5-yl)-4,4,5,8-tetramethyl-3,4-dihydro-2H-thiochromene-6-carboxamide 1,1-dioxide]
at least 80%: efficacy (herbicidal activity in percent) (Abutilon theophrasti [1]) | efficacy (herbicidal activity in percent) (Amaranthus retroflexus [2]) | efficacy (herbicidal activity in percent) (Matricaria inodora [4]) | efficacy (herbicidal activity in percent) (Stellaria media [5]) | efficacy (herbicidal activity in percent) (Veronica persica [6]) | efficacy (herbicidal action in percent) (Abutilon theophrasti [3]) | efficacy (herbicidal action in percent) (Amaranthus retroflexus [7]) | efficacy (herbicidal action in percent) (Matricaria inodora [8]) | efficacy (herbicidal action in percent) (Stellaria media [9]) | efficacy (herbicidal action in percent) (Veronica persica [10])

COc1nonc1NC(=O)c1cc(C)c2c(c1C)C(Oc1cnccn1)CCS2(=O)=O (centres unmarked) [compound 2204]
at least 80%: efficacy (herbicidal activity in percent) (Matricaria inodora [4]) | efficacy (herbicidal activity in percent) (Stellaria media [5]) | efficacy (herbicidal activity in percent) (Veronica persica [6]) | efficacy (herbicidal action in percent) (Abutilon theophrasti [3]) | efficacy (herbicidal action in percent) (Viola tricolor)
